{"source": "paper doi:10.1101/2020.08.09.242891", "about": "(bioRxiv, 2020)", "binders": {"B1": {"name": "FLAG-PKD1 (protein kinase D1) (enzyme, UniProt Q15139 1-912)", "chain": "MSAPPVLRPPSPLLPVAAAAAAAAAALVPGSGPGPAPFLAPVAAPVGGISFHLQIGLSREPVLLLQDSSGDYSLAHVREMACSIVDQKFPECGFYGMYDKILLFRHDPTSENILQLVKAASDIQEGDLIEVVLSASATFEDFQIRPHALFVHSYRAPAFCDHCGEMLWGLVRQGLKCEGCGLNYHKRCAFKIPNNCSGVRRRRLSNVSLTGVSTIRTSSAELSTSAPDEPLLQKSPSESFIGREKRSNSQSYIGRPIHLDKILMSKVKVPHTFVIHSYTRPTVCQYCKKLLKGLFRQGLQCKDCRFNCHKRCAPKVPNNCLGEVTINGDLLSPGAESDVVMEEGSDDNDSERNSGLMDDMEEAMVQDAEMAMAECQNDSGEMQDPDPDHEDANRTISPSTSNNIPLMRVVQSVKHTKRKSSTVMKEGWMVHYTSKDTLRKRHYWRLDSKCITLFQNDTGSRYYKEIPLSEILSLEPVKTSALIPNGANPHCFEITTANVVYYVGENVVNPSSPSPNNSVLTSGVGADVARMWEIAIQHALMPVIPKGSSVGTGTNLHRDISVSISVSNCQIQENVDISTVYQIFPDEVLGSGQFGIVYGGKHRKTGRDVAIKIIDKLRFPTKQESQLRNEVAILQNLHHPGVVNLECMFETPERVFVVMEKLHGDMLEMILSSEKGRLPEHITKFLITQILVALRHLHFKNIVHCDLKPENVLLASADPFPQVKLCDFGFARIIGEKSFRRSVVGTPAYLAPEVLRNKGYNRSLDMWSVGVIIYVSLSGTFPFNEDEDIHDQIQNAAFMYPPNPWKEISHEAIDLINNLLQVKMRKRYSVDKTLSHPWLQDYQTWLDLRELECKIGERYITHESDDLRWEKYAGEQGLQYPTHLINPSASHSDTPETEETEMKALGERVSIL"}}, "key": {"GST-∆PcR CBX8": {"target": "GST-∆PcR CBX8", "assay": "pull-down"}, "GST-PHC2b": {"target": "GST-PHC2b", "assay": "pull-down"}}, "note": "Results are given in words; binding and its absence hold for the method and conditions named. Binding calls can cover weak binding; strength is not graded here. Tags and fused reporters may be left off the sequences shown.", "data": [{"binder": "B1", "values": [{"measurement": "binding", "setting": "GST-∆PcR CBX8", "result": "binds"}, {"measurement": "binding", "setting": "GST-PHC2b", "result": "binds"}]}]}
